Data as given in PubChem BioAssay AID1259308 (NCATS, 2017).
Shown is an unselected part of about 59,000 reagents tested. About 1,510 of them (2.6%) count as active. 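Calls use total luciferase alone and ignore viability, so some active siRNAs may act by altering cell number.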 A number with no mark means an inactive call.

- Purpose: 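Genes whose loss raises luciferase production in HEK293 cells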 (primary screen)
- Cell system: human HEK293 embryonic kidney cells stably expressing firefly luciferase (HEK-CMV-Luc2-Hygro)
- Knock-down reagent: single siRNA against human genes, 0.8 pmol siRNA per well
- Duration: 72 h
- Detection: 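Luciferase light (ONE-Glo) measured on one replicate plate set and viability (CellTiter-Glo) on the other, scaled to a negative control siRNA, with robust z-scores and luciferase per cell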
- Direction: total luciferase, z-score and total luciferase, % of control: higher = more reporter protein produced; luciferase per cell, z-score: higher = more reporter output per viable cell; viable cells, % of control: higher = more viable cells
- Call rule: 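An siRNA counts as active if its total luciferase robust z-score exceeds 3; genes with two or more such siRNAs out of three were retested with fresh siRNAs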
- Calls: active = raised luciferase; inactive = no rise

| gene knocked down | PubChem SID | total luciferase, z-score | total luciferase, % of control | luciferase per cell, z-score | viable cells, % of control |
| --- | --- | --- | --- | --- | --- |
| DGKG | SID160730671 | -1.1 | 60 | -1.5 | 99.6 |
| DGKG | SID160752431 | 0.45 | 90.8 | 0.0529 | 100 |
| DGKG | SID160752442 | 0 | 81.9 | -0.708 | 110 |
| RDM1 | SID160760977 | 1.69 | 115 | 1.09 | 96.9 |
| RDM1 | SID160760979 | -0.602 | 69.9 | -1.27 | 109 |
| RDM1 | SID160760980 | 1.79 | 118 | 2.15 | 74.6 |
| HORMAD2 | SID160758942 | 0.389 | 89.6 | 0.274 | 93.2 |
| HORMAD2 | SID160758943 | -0.435 | 73.2 | -0.716 | 98.8 |
| HORMAD2 | SID160758944 | -0.416 | 73.6 | -0.392 | 91.2 |
| LINC02609 | SID160758806 | 0.0548 | 83 | 0.859 | 74 |
| LINC02609 | SID160758807 | -0.457 | 72.8 | -0.404 | 90.5 |
| LINC02609 | SID160758808 | -0.285 | 76.2 | -0.434 | 95.5 |
| SP110 | SID160775559 | -0.218 | 77.6 | -0.55 | 100 |
| SP110 | SID160775560 | 0.381 | 89.5 | 0.648 | 84.3 |
| SP110 | SID160775561 | -0.00513 | 81.8 | -0.249 | 97.6 |
| IL17RA | SID160736856 | -1.12 | 59.5 | -0.127 | 68.8 |
| IL17RA | SID160736857 | -0.123 | 79.4 | -0.473 | 101 |
| IL17RA | SID160736858 | 2.77 | 137 | 1.9 | 92.9 |
| MICAL3 | SID160772594 | 0.7 | 95.8 | 0.95 | 83.4 |
| MICAL3 | SID160772595 | -0.134 | 79.2 | 0.558 | 76.4 |
| MICAL3 | SID160772596 | -0.742 | 67.1 | -0.388 | 83.1 |
| OR8B2 | SID160738115 | -2.77 | 26.9 | -2.22 | 53.9 |
| OR8B2 | SID160738117 | -0.146 | 79 | -0.219 | 93.5 |
| OR8B2 | SID160738118 | -0.858 | 64.8 | -0.773 | 88.8 |
| GIT2 | SID160723156 | -0.264 | 76.6 | -0.477 | 97.1 |
| GIT2 | SID160723157 | 1.33 | 108 | 1.6 | 79.5 |
| GIT2 | SID160723158 | 0.553 | 92.9 | 0.111 | 101 |
| CIMAP3 | SID160756736 | -0.138 | 79.1 | -0.454 | 99.7 |
| CIMAP3 | SID160756737 | -0.0665 | 80.6 | -0.11 | 92.7 |
| CIMAP3 | SID160756738 | -0.0434 | 81 | 0.129 | 87.5 |
| GAS2 | SID160769366 | -0.807 | 65.8 | -0.519 | 84.3 |
| GAS2 | SID160769374 | 0.27 | 87.3 | 1.18 | 71.4 |
| GAS2 | SID160769384 | 1.37 | 109 | 1.33 | 85.9 |
| NANP | SID160757914 | -0.117 | 79.6 | -0.542 | 103 |
| NANP | SID160757915 | -1.3 | 56.1 | -1.33 | 89 |
| NANP | SID160757917 | -1.34 | 55.2 | -1.6 | 93.9 |
| LINC02043 | SID160734717 | -1.7 | 48.2 | -1.47 | 79.3 |
| LINC02043 | SID160773562 | -1.77 | 46.6 | -1.18 | 71 |
| LINC02043 | SID160773563 | 0.494 | 91.7 | 1.01 | 78.6 |
| P2RY11 | SID160723972 | 0.312 | 88.1 | 0.343 | 89.9 |
| P2RY11 | SID160731321 | -0.397 | 74 | -0.0117 | 82.9 |
| P2RY11 | SID160778510 | 1.09 | 104 | 1.07 | 87.4 |
| PRR34 | SID160743385 | 3.27 (active) | 147 | 2.1 | 94.5 |
| PRR34 | SID160743386 | 4.59 (active) | 173 | 2.77 | 93.2 |
| PRR34 | SID160743387 | -2.15 | 39.1 | -2.25 | 78.9 |
| TRAF7 | SID160751920 | 0.383 | 89.5 | 0.791 | 81.2 |
| TRAF7 | SID160751921 | -0.138 | 79.1 | -0.499 | 101 |
| TRAF7 | SID160751923 | -0.249 | 76.9 | -1.01 | 112 |
| RUFY3 | SID160733059 | -0.408 | 73.8 | -0.651 | 97.8 |
| RUFY3 | SID160733070 | -0.679 | 68.4 | -0.263 | 81.9 |
| RUFY3 | SID160733081 | -0.123 | 79.4 | 0.176 | 84.8 |
| RPS24P4 | SID160772586 | -0.334 | 75.2 | 0.189 | 80 |
| RPS24P4 | SID160772587 | 1.01 | 102 | 2.42 | 60.2 |
| RPS24P4 | SID160772588 | -0.0677 | 80.5 | -0.132 | 93.2 |
| OR5M8 | SID160761282 | -0.096 | 80 | 0.108 | 86.9 |
| OR5M8 | SID160761283 | 0.0834 | 83.5 | 0.283 | 86.6 |
| OR5M8 | SID160761284 | 2.21 | 126 | 1.45 | 96 |
| CCSAP | SID160756526 | 1.06 | 103 | 1.25 | 82.7 |
| CCSAP | SID160756527 | -0.87 | 64.6 | 1.87 | 44.1 |
| CCSAP | SID160756528 | 1.51 | 112 | 1.25 | 89.9 |
| POLDIP3 | SID160752013 | -0.76 | 66.8 | -1.24 | 103 |
| POLDIP3 | SID160752014 | -0.663 | 68.7 | -1.04 | 101 |
| POLDIP3 | SID160752015 | 2.01 | 122 | 2.34 | 73.6 |
| CMC2 | SID160733650 | 0.837 | 98.5 | 0.611 | 93.7 |
| CMC2 | SID160745352 | 1.75 | 117 | 1.73 | 82.7 |
| CMC2 | SID160745353 | -0.879 | 64.4 | -0.716 | 86.9 |
| CCDC85B | SID160724302 | -0.045 | 81 | -0.774 | 111 |
| CCDC85B | SID160724303 | 0.179 | 85.5 | 0.018 | 95 |
| CCDC85B | SID160724304 | 3.66 (active) | 155 | 1.56 | 115 |
| NPEPPS | SID160763582 | 0.505 | 91.9 | 0.738 | 84.6 |
| NPEPPS | SID160763685 | -0.304 | 75.8 | 0.259 | 79.2 |
| NPEPPS | SID160763785 | 0.872 | 99.2 | 0.435 | 98.9 |
| SRSF9 | SID160720596 | -0.44 | 73.1 | -0.935 | 105 |
| SRSF9 | SID160720597 | -0.617 | 69.6 | -0.749 | 94.8 |
| SRSF9 | SID160720598 | 0.77 | 97.2 | 0.852 | 86.8 |

In a second layout: entries from further up
NANP [SID160757917]
- total luciferase, z-score: -1.34
- total luciferase, % of control: 55.2
- luciferase per cell, z-score: -1.6
- viable cells, % of control: 93.9

LINC02043 [SID160734717]
- total luciferase, z-score: -1.7
- total luciferase, % of control: 48.2
- luciferase per cell, z-score: -1.47
- viable cells, % of control: 79.3

LINC02043 [SID160773562]
- total luciferase, z-score: -1.77
- total luciferase, % of control: 46.6
- luciferase per cell, z-score: -1.18
- viable cells, % of control: 71

LINC02043 [SID160773563]
- total luciferase, z-score: 0.494
- total luciferase, % of control: 91.7
- luciferase per cell, z-score: 1.01
- viable cells, % of control: 78.6

P2RY11 [SID160723972]
- total luciferase, z-score: 0.312
- total luciferase, % of control: 88.1
- luciferase per cell, z-score: 0.343
- viable cells, % of control: 89.9

P2RY11 [SID160731321]
- total luciferase, z-score: -0.397
- total luciferase, % of control: 74
- luciferase per cell, z-score: -0.0117
- viable cells, % of control: 82.9

P2RY11 [SID160778510]
- total luciferase, z-score: 1.09
- total luciferase, % of control: 104
- luciferase per cell, z-score: 1.07
- viable cells, % of control: 87.4
